Measurements taken from publication PMC7205486.

Amino acid sequences for entries named in this document (tags omitted).
UniProt Q7WZ07, entry or part of it: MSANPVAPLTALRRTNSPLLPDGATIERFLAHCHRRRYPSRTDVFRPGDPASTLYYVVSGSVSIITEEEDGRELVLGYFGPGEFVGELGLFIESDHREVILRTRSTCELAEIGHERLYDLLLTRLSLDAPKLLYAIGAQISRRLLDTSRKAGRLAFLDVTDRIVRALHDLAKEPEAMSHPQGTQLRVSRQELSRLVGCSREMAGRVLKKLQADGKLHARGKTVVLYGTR

Target: Clp (GST-Clp) (Lysobacter enzymogenes OH11) (UniProt Q7WZ07)
Experiment: EMSA
Conditions: Clp 0, 1, 2, 4, 8 uM, 50 ng probe; 10 mM Tris pH 7.5, 50 mM KCl, 1 mM DTT, 0.4% glycerol, 20 ul, 28 C 25-30 min; 5% native acrylamide gel, 0.5x TBE, 4 C; recombinant protein; residues 1-229; protein details: GST; label: none (SYBR green I stain); probe letters rebuilt from the primers and the genome

TGCTCTAGAAGCAAGCCGGCGCGCTCCACCGGCAGCCCGCGGGCGGTCCGGCCGCCTTGCCCAGCCGGGCCGGAAGCCAAGCGGGCGCGATCCATTCTTTGACCGCGATTGCGGTATGGAGCGTGCGTGCGCAGACGCTGCGCGCTCAGAAATGCGCGTCGAGGAACGCCGCCGCCGCATCCGACAGGCCGACGACCTTGTCGGTGGCCTGGCGATAGAGCTTGAAGTTGAGTTCGGTCTGCGGCCGGCCGTCGTCCCACTGCGCATGCGGCTTGAGCTCGGCGCGGCCGAGCGGCCGCCGCGCGGTCGCGGTGCGGCGGATGCGCACGCTCACCCGCGGTGTCTGCCGCGCCACGCCCGGCCGCGGCGCCACCGCCTCGGCCGCGACCACGGTGCCGCGCGCGAACAGGCCGGCGCCGCCGGCGTTCTCGCTGGCGAACAGATAGACCGTATCGCCGGCGGCGATGCGCTTGCCGCCGTACATGGTCTTCTGCCTCGAGCGG (double strand) [pLe rpfB2 promoter]
binding result: binds

TGCTCTAGACACGGACGGTTCAAACTCATCGCGATCCCCTCTTTAATCGCTCGTCGATTTTCTGTCCGCTTGCCGCGAAGTGCGCCGGCGTACGGTGTGTTTTCTCGATTGGAGCATAGGCTCTAGCGGGTGGCAAGGCGGTGCCCGGCGGCGTTGTGGCGAGCGCCGCGGACCTGTCAGGATCGGCGGCAGCCGGGCTTGGCTCCGGCACGGACCGCGCGGCGCCGCGCCGCCGGCCGAGTGGGCGAACGGTCGTGCGAATACGTCCGTTGCAGCGTTCAGAAGGGGAAATCCGCCATGTTCACACTGTTCGCGATCGACCGGACGCAGCCGCTACGGAGCGCCGCCCGCGCGGGCGCGCGCATGGGCTGGCTGGCGGCCGCGCTGCTGGCCCTGGCCGCCTGCGGCGGCGGCTCGCCGGAGCAGCGCCTGCGCGCGTCGATGACCCAGTTGCAGGATGCTCGAGCGG (double strand) [pLe rpfB1 promoter]
binding result: binds

For at least one entry, the source does not settle the construct or the ends of the probe.
